Paper doi:10.1101/2025.02.27.640530
Results are given in words; binding and its absence hold for the method and conditions named. In cells and extracts the contact can be indirect. Some binding calls cover weakened binding; strength is not graded here. Sequences can lack the tags named with a protein.

Chains of the proteins cited; added tags and fusions are not shown.
UniProt P63208: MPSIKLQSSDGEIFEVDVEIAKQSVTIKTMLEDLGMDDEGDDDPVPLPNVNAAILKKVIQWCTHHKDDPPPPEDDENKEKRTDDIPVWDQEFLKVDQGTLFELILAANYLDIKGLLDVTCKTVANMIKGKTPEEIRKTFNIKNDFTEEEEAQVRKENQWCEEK
UniProt Q14999: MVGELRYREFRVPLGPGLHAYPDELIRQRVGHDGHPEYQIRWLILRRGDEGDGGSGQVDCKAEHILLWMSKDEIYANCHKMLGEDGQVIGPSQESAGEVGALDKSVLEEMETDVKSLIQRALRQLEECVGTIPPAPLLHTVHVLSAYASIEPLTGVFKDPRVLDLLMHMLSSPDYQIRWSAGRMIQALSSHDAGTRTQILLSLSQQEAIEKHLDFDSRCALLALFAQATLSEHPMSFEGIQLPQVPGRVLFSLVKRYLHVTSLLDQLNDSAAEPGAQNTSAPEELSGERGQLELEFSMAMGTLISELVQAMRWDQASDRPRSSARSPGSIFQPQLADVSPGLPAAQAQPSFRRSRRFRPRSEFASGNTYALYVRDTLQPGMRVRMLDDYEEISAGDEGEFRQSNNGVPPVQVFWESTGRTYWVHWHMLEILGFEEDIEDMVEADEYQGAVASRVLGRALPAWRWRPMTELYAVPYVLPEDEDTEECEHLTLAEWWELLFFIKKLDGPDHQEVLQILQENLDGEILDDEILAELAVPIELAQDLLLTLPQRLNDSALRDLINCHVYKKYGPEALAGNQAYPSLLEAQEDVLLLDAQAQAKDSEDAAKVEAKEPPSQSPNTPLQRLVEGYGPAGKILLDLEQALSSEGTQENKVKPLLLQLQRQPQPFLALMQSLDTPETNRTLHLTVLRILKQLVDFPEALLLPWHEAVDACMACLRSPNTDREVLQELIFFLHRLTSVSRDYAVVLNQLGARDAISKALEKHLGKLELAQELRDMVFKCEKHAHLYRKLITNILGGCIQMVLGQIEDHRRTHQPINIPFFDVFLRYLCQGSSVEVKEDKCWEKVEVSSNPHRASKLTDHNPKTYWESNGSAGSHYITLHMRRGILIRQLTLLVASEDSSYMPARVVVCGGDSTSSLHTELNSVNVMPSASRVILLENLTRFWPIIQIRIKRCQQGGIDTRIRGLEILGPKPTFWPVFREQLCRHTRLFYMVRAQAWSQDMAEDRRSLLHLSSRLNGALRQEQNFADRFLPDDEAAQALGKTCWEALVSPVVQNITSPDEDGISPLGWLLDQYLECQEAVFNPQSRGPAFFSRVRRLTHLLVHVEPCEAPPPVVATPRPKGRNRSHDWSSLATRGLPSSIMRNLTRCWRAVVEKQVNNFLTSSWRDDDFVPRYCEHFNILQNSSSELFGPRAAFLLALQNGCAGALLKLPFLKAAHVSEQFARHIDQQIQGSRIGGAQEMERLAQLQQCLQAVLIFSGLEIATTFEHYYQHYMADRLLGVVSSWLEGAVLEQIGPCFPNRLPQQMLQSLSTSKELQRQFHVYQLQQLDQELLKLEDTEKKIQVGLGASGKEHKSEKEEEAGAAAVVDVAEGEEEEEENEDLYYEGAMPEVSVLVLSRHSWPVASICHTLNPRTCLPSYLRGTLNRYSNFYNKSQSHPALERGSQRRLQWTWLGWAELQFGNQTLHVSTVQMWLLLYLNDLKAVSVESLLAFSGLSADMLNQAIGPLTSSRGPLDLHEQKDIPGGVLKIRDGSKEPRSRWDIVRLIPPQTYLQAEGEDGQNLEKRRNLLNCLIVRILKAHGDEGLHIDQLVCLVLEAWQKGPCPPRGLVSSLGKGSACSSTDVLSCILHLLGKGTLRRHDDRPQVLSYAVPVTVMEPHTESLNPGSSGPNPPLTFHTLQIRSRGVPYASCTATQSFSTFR

Molecular target: T1, FLAG-tagged NUMB (UniProt P49757)
T1 sequence: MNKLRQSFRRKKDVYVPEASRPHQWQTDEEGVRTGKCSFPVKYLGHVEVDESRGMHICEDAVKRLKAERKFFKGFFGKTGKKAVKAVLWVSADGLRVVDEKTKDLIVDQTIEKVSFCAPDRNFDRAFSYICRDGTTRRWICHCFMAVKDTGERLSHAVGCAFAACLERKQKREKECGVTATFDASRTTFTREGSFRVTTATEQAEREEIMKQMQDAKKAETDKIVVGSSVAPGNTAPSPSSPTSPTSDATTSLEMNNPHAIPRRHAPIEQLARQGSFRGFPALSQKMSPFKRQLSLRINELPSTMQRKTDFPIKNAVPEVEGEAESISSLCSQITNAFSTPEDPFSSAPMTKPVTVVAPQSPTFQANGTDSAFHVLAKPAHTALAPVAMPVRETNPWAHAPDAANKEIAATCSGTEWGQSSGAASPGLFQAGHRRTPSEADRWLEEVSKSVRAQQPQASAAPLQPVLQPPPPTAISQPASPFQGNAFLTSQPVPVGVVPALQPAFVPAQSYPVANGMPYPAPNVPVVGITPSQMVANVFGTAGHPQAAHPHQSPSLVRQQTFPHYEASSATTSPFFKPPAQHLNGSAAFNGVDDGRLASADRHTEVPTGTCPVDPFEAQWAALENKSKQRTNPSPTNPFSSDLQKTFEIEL
Assay: co-IP

| Substance | binding |
| --- | --- |
| SKP1 (from UniProt P63208 1-163) | binds |
| CUL7 (from UniProt Q14999 1-1698) | binds |
